PubChem BioAssay AID1259308, NCATS – 2017

Aim: 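Genes whose loss raises luciferase production in HEK293 cells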 (primary screen)
Cell system: human HEK293 embryonic kidney cells stably expressing firefly luciferase (HEK-CMV-Luc2-Hygro)
Reagents: single siRNA against human genes, 0.8 pmol siRNA per well
Duration: 72 h
Measured: 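Luciferase light (ONE-Glo) measured on one replicate plate set and viability (CellTiter-Glo) on the other, scaled to a negative control siRNA, with robust z-scores and luciferase per cell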
Scale: total luciferase, z-score: higher = more reporter protein produced
Call rule: 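Active when the median/MAD z-score for overall luciferase is greater than 3; a gene was taken forward for validation with new siRNAs if at least two of its three siRNAs passed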
Meaning of the calls: active = raised luciferase; inactive = no rise
The whole screen tested about 59,000 reagents; below is a random part of them. Of all reagents, about 1,510 (2.6%) got an active call. 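Calls use total luciferase alone and ignore viability, so some active siRNAs may act by altering cell number.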 Reagents against one gene are numbered here. Not all columns of the deposit are shown. Reagent sequences are not shown.

For AXDND1 (axonemal dynein light chain domain containing 1) #1, what was measured?
total luciferase, z-score: -1.32; Outcome: inactive

How did the screen score AXDND1 (axonemal dynein light chain domain containing 1) #2?
total luciferase, z-score: -1.08; Outcome: inactive

What did the screen give for AXDND1 (axonemal dynein light chain domain containing 1) #3?
total luciferase, z-score: -0.14; Outcome: inactive

For TMEM86B (transmembrane protein 86B) #1, what was measured?
total luciferase, z-score: -0.371; Outcome: inactive

For TMEM86B (transmembrane protein 86B) #2, how do the results read?
total luciferase, z-score: 1.71; Outcome: inactive

Which result is listed for TMEM86B (transmembrane protein 86B) #3?
total luciferase, z-score: 2.69; Outcome: inactive

With TMEM181 (transmembrane protein 181) #1, what was measured?
total luciferase, z-score: -0.0598; Outcome: inactive

With TMEM181 (transmembrane protein 181) #2, how do the results read?
total luciferase, z-score: -0.523; Outcome: inactive

For TMEM181 (transmembrane protein 181) #3, how do the results read?
total luciferase, z-score: -0.0595; Outcome: inactive

What did the screen give for CCNC (cyclin C) #1?
total luciferase, z-score: -2.66; Outcome: inactive

For CCNC (cyclin C) #2, what does the deposit list?
total luciferase, z-score: -1.3; Outcome: inactive

How did the screen score CCNC (cyclin C) #3?
total luciferase, z-score: -1.13; Outcome: inactive

What did the screen give for FBXL12 (F-box and leucine rich repeat protein 12) #1?
total luciferase, z-score: 2.6; Outcome: inactive

How did the screen score FBXL12 (F-box and leucine rich repeat protein 12) #2?
total luciferase, z-score: 0.618; Outcome: inactive

For FBXL12 (F-box and leucine rich repeat protein 12) #3, what was measured?
total luciferase, z-score: -0.051; Outcome: inactive

For HDAC8 (histone deacetylase 8) #1, what does the deposit list?
total luciferase, z-score: 0.0159; Outcome: inactive

With HDAC8 (histone deacetylase 8) #2, what does the deposit list?
total luciferase, z-score: -0.561; Outcome: inactive

What is on record for HDAC8 (histone deacetylase 8) #3?
total luciferase, z-score: 1.24; Outcome: inactive

With TCHHL1 (trichohyalin like 1) #1, what does the deposit list?
total luciferase, z-score: 0.757; Outcome: inactive

With TCHHL1 (trichohyalin like 1) #2, what was measured?
total luciferase, z-score: 1.16; Outcome: inactive

What is on record for TCHHL1 (trichohyalin like 1) #3?
total luciferase, z-score: -0.177; Outcome: inactive

For LOC401021 #1, what does the deposit list?
total luciferase, z-score: -0.248; Outcome: inactive

For LOC401021 #2, what was measured?
total luciferase, z-score: 0.298; Outcome: inactive

How did the screen score LOC401021 #3?
total luciferase, z-score: -1.99; Outcome: inactive

Part of the list above, reformatted:
{"Gene":"TMEM181 (transmembrane protein 181)","reagent":3,"total luciferase, z-score":-0.0595,"Outcome":"inactive"}
{"Gene":"CCNC (cyclin C)","reagent":1,"total luciferase, z-score":-2.66,"Outcome":"inactive"}
{"Gene":"CCNC (cyclin C)","reagent":2,"total luciferase, z-score":-1.3,"Outcome":"inactive"}
{"Gene":"CCNC (cyclin C)","reagent":3,"total luciferase, z-score":-1.13,"Outcome":"inactive"}
{"Gene":"FBXL12 (F-box and leucine rich repeat protein 12)","reagent":1,"total luciferase, z-score":2.6,"Outcome":"inactive"}

The listing continues:
With SNX7 (sorting nexin 7) #1, how do the results read?
total luciferase, z-score: 1.28; Outcome: inactive

Which result is listed for SNX7 (sorting nexin 7) #2?
total luciferase, z-score: -0.0442; Outcome: inactive

What is on record for SNX7 (sorting nexin 7) #3?
total luciferase, z-score: -0.426; Outcome: inactive

For ERLIN2 (ER lipid raft associated 2) #1, what does the deposit list?
total luciferase, z-score: -2.48; Outcome: inactive

With ERLIN2 (ER lipid raft associated 2) #2, how do the results read?
total luciferase, z-score: 2.2; Outcome: inactive

How did the screen score ERLIN2 (ER lipid raft associated 2) #3?
total luciferase, z-score: 0.761; Outcome: inactive

How did the screen score DYRK3 (dual specificity tyrosine phosphorylation regulated kinase 3) #1?
total luciferase, z-score: -1.13; Outcome: inactive

With DYRK3 (dual specificity tyrosine phosphorylation regulated kinase 3) #2, what was measured?
total luciferase, z-score: -0.0271; Outcome: inactive

With DYRK3 (dual specificity tyrosine phosphorylation regulated kinase 3) #3, what does the deposit list?
total luciferase, z-score: -0.536; Outcome: inactive

How did the screen score TUBB4A (tubulin beta 4A class IVa) #1?
total luciferase, z-score: -0.117; Outcome: inactive

Which result is listed for TUBB4A (tubulin beta 4A class IVa) #2?
total luciferase, z-score: -0.281; Outcome: inactive

How did the screen score TUBB4A (tubulin beta 4A class IVa) #3?
total luciferase, z-score: -1.15; Outcome: inactive

What is on record for MLLT1 (MLLT1 super elongation complex subunit) #1?
total luciferase, z-score: 0.0355; Outcome: inactive

What is on record for MLLT1 (MLLT1 super elongation complex subunit) #2?
total luciferase, z-score: -0.788; Outcome: inactive

What is on record for MLLT1 (MLLT1 super elongation complex subunit) #3?
total luciferase, z-score: -0.328; Outcome: inactive

For HOOK3 (hook microtubule tethering protein 3) #1, what was measured?
total luciferase, z-score: -1; Outcome: inactive

What is on record for HOOK3 (hook microtubule tethering protein 3) #2?
total luciferase, z-score: -0.684; Outcome: inactive

How did the screen score HOOK3 (hook microtubule tethering protein 3) #3?
total luciferase, z-score: 0.332; Outcome: inactive
